Data taken from the supplement of paper PMC3334620.
The full ranking holds about 33,000 sequences; the median of “E-score (-0.5 to 0.5)” is about -0.0059, and the highest 2% start at about 0.26. Some of the results follow.

The sequences below were run against T1, Cin5 (UniProt P40917) (assay: PBM E-score (8-mer binding enrichment) (E-score (-0.5 to 0.5)); higher = stronger / more preferred TF binding). Settings: protein concentration: 100 nM; construct: GST-full length.
T1 sequence: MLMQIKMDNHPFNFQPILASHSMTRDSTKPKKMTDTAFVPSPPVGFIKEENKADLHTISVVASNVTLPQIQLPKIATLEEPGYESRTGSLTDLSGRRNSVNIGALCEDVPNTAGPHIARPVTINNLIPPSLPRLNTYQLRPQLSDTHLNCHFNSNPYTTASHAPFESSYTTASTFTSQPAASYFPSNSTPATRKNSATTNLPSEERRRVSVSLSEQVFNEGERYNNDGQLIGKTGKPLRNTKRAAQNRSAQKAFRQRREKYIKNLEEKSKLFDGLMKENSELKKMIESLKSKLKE
Description: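 Universal 'all 10-mer' protein binding microarrays (Agilent AMADID 015681) probed with GST-tagged S. cerevisiae TFs (full-length or DBD) made by in vitro transcription/translation (PURExpress), about 100-200 nM. Bound TF was detected with fluorescent anti-GST. Each ungapped 8-mer (which stands for itself and its reverse complement) is scored by the PBM enrichment score (E-score), a modified Wilcoxon-Mann-Whitney statistic from -0.5 to +0.5, computed with the Universal PBM Analysis Suite. Scale: above 0.35 generally sequence-specific binding.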

Sequence	PBM E-score
GATAGTTA	0.226
CTAGCTCA	-0.101
CATGGATC	-0.00694
AGTATGCC	-0.0797
AGGAGCAA	-0.104
AGGTAGGG	0.0397
AAACATCA	0.129
AGACGTTA	-0.0554
GACCTTGA	-0.0555
AGAATTCC	0.0573
GGTGCCAA	-0.118
ACACTTGG	-0.0972
ATCGGCTC	0.0239
ACTTCGAG	0.0671
AAGGATGA	0.0547
CATGCACG	-0.0722
CACTATTC	0.173
AAGAGATG	0.0505
CTGGACCA	-0.148
AAGTTCGG	-0.0355
TGTCAGAA	-0.0358
GCTACAAA	0.107
ATGCAACC	0.0776
ACGTTGAA	0.0972
CGAGAATC	0.0488

Sequence	PBM E-score
ATCGACCA	-0.12
ACACAATC	-0.0345
GGATTAAC	0.164
CCCGCCTA	0.131
CGTCTAGC	-0.173
AATAAGAC	0.0572
AAGCCCGA	-0.104
ATGATATC	0.167
CGCCGCTC	-0.0167
ATGAGCCA	0.0939
CCCCACGC	-0.238
GACAAATA	0.149
AGGACTCG	-0.22
CAGGGATC	-0.13
ACCCGCAC	-0.0302
TGATTGCA	0.184
AGGATTGC	-0.179
AAATCCCG	0.124
CAGACGGG	-0.199
AGGCTACC	-0.245
ATGTTTTG	0.151
CAGTACGG	-0.0198
GCTTGCCC	-0.312
GCGTCAGC	-0.102
CGCTATAC	0.145

A second format for some results above.
Sequence | PBM E-score
CGTCTAGC | -0.173
AATAAGAC | 0.0572
AAGCCCGA | -0.104
ATGATATC | 0.167
CGCCGCTC | -0.0167
ATGAGCCA | 0.0939
CCCCACGC | -0.238

Looked up one by one from the list above:
Sequence	PBM E-score
ATCGACCA	-0.12
GGATTAAC	0.164
AGGCTACC	-0.245
CAGGGATC	-0.13

(continued)

Sequence	PBM E-score
GTACCGTA	0.0114
GATTGGGC	0.114
GGAAAACA	0.0863
CTCTATCA	-0.0636
ACTGACCT	0.0284
CAAACGTA	0.12
CGATAAAC	-0.143
GTCTCAGA	-0.168
ATAACGAC	0.238
ACCAGACC	-0.0459
CCAACGAC	-0.158
GATTAATA	0.348
TAAAACAA	-0.0112
GGGGAATA	0.0277
ACCTCCGG	-0.0229
AGAATCCA	0.0844
AAGATATT	0.247
GTATGTTA	0.0473
CGACTCGC	-0.0833
GATTAGTA	0.254
GAGAATTA	0.2
ACGGTGTC	-0.265
GACCGCTC	-0.167
CTCTCCAG	-0.333
ACATATGT	0.103

Sequence	PBM E-score
AGCTCCCC	-0.218
CGATCTGA	0.0488
ACAGCGGC	-0.142
CCCTACAG	-0.188
GATTCAGA	0.0843
ATCTTCAC	0.0209
ACGCTTCA	-0.178
CCGGCTTA	0.166
AAACCCGT	-0.2
AAACCGCA	-0.142
GACCCTGA	-0.186
TCGGGACA	-0.0817
AGTAGGTG	-0.00231
CATCTATC	0.0252
CACGTTCA	-0.14
CCCGGTTC	-0.24
AGGACAAA	0.152
GCGCGATA	0.177
TGCAGAAA	0.0504
ATTGAGTC	0.103
GTCTACGA	-0.215
AGTTGTCC	0.0343
GTCTAACA	-0.192
CGGAACGA	0.287
AAATTGCA	0.15

Sequence	PBM E-score
CGTATGTC	-0.123
ACTATCTC	0.121
AAGTTAAC	0.194
CCAATCCC	0.0783
CAACTCTC	-0.0548
GTTGACGA	-0.0909
CACCATAC	0.00539
ATAAATTA	0.349
ACCAGTCA	0.0208
CAGTGCAA	0.0676
GTTTCTAA	-0.0728
CAAATTTG	0.0968
TACACCCA	0.187
GGCGTTTA	-0.0349
GTTTACTA	0.241
ATGTTGAC	0.146
GAGTCTAC	-0.194
CAGGGGGA	-0.337
GCTTCCCA	-0.174
CTATCAAC	0.102
TTAATGAA	0.201
CTATGCTA	-0.0144
ATATCGAT	0.265
AAAGCTTC	-0.18
GGACATCC	-0.0593

Sequence	PBM E-score
CCTACACG	-0.231
CCTTGCGC	-0.0397
ACAGCAGA	-0.00672
CCAAAGGG	-0.191
ACACTGTC	-0.19
ACGAAGAT	0.116
GCGGAGCA	-0.059
AAGCACTC	-0.0467
AATTTCAC	0.0675
ACTCGTCT	0.117
ACATCTTA	-0.0269
CGCATAGC	-0.165
GGGAACAA	0.0662
CGAGGGAA	-0.0115
CTATTGGC	-0.124
GAGTGAGC	-0.00717
AGTCCGCG	-0.00619
AAGGTCAG	-0.178
TCGGGGAA	0.0882
CCCACGAC	-0.199
CGGGTTAG	-0.14
AATTGAGC	0.0103
CCAACTCC	0.0416
AAGGCTAG	0.00053
CGTTGGCC	-0.273

Sequence	PBM E-score
ACCCTGTA	0.00016
ACTGTACT	0.0414
ATCATGTC	0.127
ATAATAGG	0.207
CAGAGGGG	-0.403
CTCTATTA	0.0158
CGTTACAG	0.108
GTTACACA	0.0266
AGGGTTCA	-0.0509
CTATTTTA	0.231
ATCGTTAA	0.166
CCAACAAG	-0.0134
GTAATGTA	0.0916
AGTGGTCC	-0.116
CCTGGTAC	-0.1
AGCAAGGG	-0.0739
GAGCCGGA	-0.178
CTTTGTAA	0.115
AAAGAACG	0.0795
AACGTACC	-0.168
ACCATTCC	0.097
ACGGACAG	-0.0736
CGTAGGGA	-0.113
AACTCAGC	0.101
CAATGAAA	0.0978

Sequence	PBM E-score
CGTTGGAA	-0.0966
AGTAACCG	0.0599
CCTCCCCA	0.0288
AACATTGC	-0.141
AAGCAAAC	0.215
AAGCTTCT	0.0451
AGTTTTCA	-0.0513
AGGATGGG	-0.0351
ATAGTGTA	0.167
GGGATACC	-0.21
CACAAGAA	0.141
GATACCAC	0.131
ACGAGCTC	-0.0839
TGTCTGAA	-0.0637
ACGCGAGT	0.0274
CATAGCAG	-0.254
GGTCGACA	-0.0979
AGGTCTAG	-0.175
AGATATAG	0.149
CTCACGGA	0.00719
ATTGGGAC	0.137
ACACTGCC	0.14
ACAGAGGG	-0.254
ATTGTATC	0.132
CCCCAGGC	-0.264

Sequence	PBM E-score
ATCAACCG	0.0693
ATAATTAT	0.341
CCTCTACC	-0.068
ACCTTTCT	0.044
ATAAATGC	0.0853
CTTGTGCC	-0.213
GTGAATAA	0.235
ATGCTTTG	0.00636
CGTAAAAA	0.0224
AGACACAA	0.0122
AGGACCCT	-0.286
TATGCATA	0.0485
TGGTTAAA	0.0576
CTCAGAGA	-0.0852
CATTTAGA	-0.016
ACTTTCCA	0.205
GGGATTAC	0.264
GTCATCCA	0.201
ATTCGGCC	0.0607
ATATCGTG	-0.0718
AATGGCCG	-0.0456
AAGGAACA	-0.0921
GAAGTGCC	-0.182
CGCACATC	0.0232
CTCTCGTC	-0.0573

Some of the entries so far, with each value named:
GGGGAATA
  PBM E-score = 0.0277
ATAATAGG
  PBM E-score = 0.207

Additional results

Sequence	PBM E-score
CCAAACAC	-0.0256
GCGTGGGA	-0.0838
AATACCAG	0.176
AACCGCTG	-0.0663
GCATTCTA	0.0846
CGAAAGGA	0.075
AAAGCACG	-0.147
CACCCCCA	-0.424
AAGACCTG	-0.0993
AAAGCGAG	0.119
CTAGCTGA	0.0658
TGCGGGAA	0.0931
AGTTATCC	0.134
GCTCAACC	-0.166
GAAATTGA	0.0828
AAGAGAAA	-0.0461
AGTAAGAA	0.149
ACGTGTCC	-0.217
ACGTACGA	-0.0268
ATGGCGAG	-0.0288
CAGCCGTA	-0.0293
AGTATGGA	0.081
AGCCCGTG	-0.258
CACGATGA	0.0588
GTTAAAGA	-0.0778

Sequence	PBM E-score
AATCAGGC	0.12
ACCCTCCT	-0.218
GATTGAGC	0.0455
CAGTAGCA	-0.0186
GGTGCAAA	-0.0911
ATACCAGA	0.193
ACCAGACG	-0.119
GGGCCGGA	-0.201
ACGAGGCC	-0.292
AACGGGGG	-0.286
ATGGTGTG	0.063
GCTTTCAC	-0.0478
ACTTCCAC	0.048
AAGGGAAA	-0.0882
CCGAAGCG	-0.12
ATCCAACA	0.0603
CCTGTATC	0.106
GCCGAGTA	-0.209
ATGTTGCG	0.0768
CATACTAG	0.207
AGGTACCA	-0.208
AGATCAAC	0.0687
ATCTAAGC	0.0466
ACCGGTGA	-0.188
CCCACACG	0.0465

Sequence	PBM E-score
AGGTTTTG	-0.037
CACCCCCG	-0.182
ATCTACCC	0.178
CCATTACG	0.0601
GCCCTCCA	-0.212
ACAACTGA	0.18
ACAACTCT	-0.0384
ACTGTGCG	0.0559
ACCTCCGA	-0.288
ATTGTGTG	0.0687
AGAGTATC	0.148
GGATGGCA	0.27
GGCTTACA	0.332
TACGTATA	0.167
AAGGGACA	-0.142
GGGGCGAA	-0.0333
AAAGCAAT	0.253
AACACAAC	0.0594
AAATACCA	0.0623
GAAGCTAC	-0.068
TGTCCTAA	-0.00752
GGACTATA	0.0502
AGGTACCG	-0.0749
CGAATTGC	0.119
TCGCGGAA	-0.0345

Sequence	PBM E-score
GAATCTGC	-0.00411
GAGCCGCA	-0.0266
CTACCCCC	-0.404
CCGACCGA	-0.142
ATTAGCAC	0.133
GGACTGCC	-0.188
ATCCGGCG	-0.0154
ATACGGAT	0.202
ACAGCGCA	-0.0308
ATGTGAAT	0.101
AAATCCAT	0.312
AGCTACAG	-0.0414
AGTTTACA	0.0922
CCTCCTTC	-0.183
AAAGAAGC	-0.013
CCAAGCGC	-0.0394
CCGACTCC	-0.155
GGTAATCA	0.289
CTTGCGTC	-2e-05
TAAAAGGA	0.116
AGAGAGAC	-0.164
GCGAATTA	0.266
GACGTGGA	0.0127
AAGTAGCC	-0.151
GAGCTTGC	-0.0833

Sequence	PBM E-score
ACAATTGG	-0.0476
AACATTTC	0.0406
CCCTTTTA	-0.261
GCCATACC	-0.237
CGGACTAG	-0.124
TCGTCAGA	-0.145
GAGTTATA	0.0627
AGGATAGG	-0.159
GGCGAGGA	-0.236
GCTATCCA	-0.049
GCGGCAAC	-0.105
ACATGCGA	-0.123
ATGTGGTA	0.186
CGTTAGAG	-0.135
GCGAGAGA	-0.169
ACTGATCT	0.116
GAGGACAC	0.015
ACCTCCAC	-0.0645
ATCGGGTC	0.0596
